Data as given in patent US20250032514A1, “COMPOSITIONS AND METHODS FOR THE TREATMENT OF VARIOUS DISEASES” (Amylyx Pharmaceuticals, Inc., priority 2023, published 2025).
At least one read-out could not be matched to a standard name with certainty.

Experiment: Study A35-002: single-dose PK of AMX0035, fasted vs high-fat meal, two-period cross-over
Assay type: in vivo, human
Conditions: single oral dose of AMX0035, healthy adults
Method: The pharmacokinetics (PK) of PB and TURSO after a single dose administration of AMX0035 were determined in adult (40 to 55 years of age) male and female normal healthy participants. Fourteen participants received a single dose of AMX0035 on two occasions (with a washout between periods of no less than 4 days), after fasting or after a high-fat standardized meal in a balanced, two-period, cross-over design (Study A35-002).
Clearance is rapid, and the terminal half-life (t1/2) is less than 1 hour. […] The primary metabolite of PB is phenylacetate (PAA), which occurs endogenously as a phenylalanine metabolite. […] Many participants had two or three peaks of absorption, which is consistent with bile acid storage and release upon a meal/snack. […] The primary metabolites of TURSO include ursodeoxycholic acid (UDCA) and glycoursodeoxycholic acid (GUDCA). All three are naturally occurring hydrophilic bile acids and subject to extensive enterohepatic recirculation.

**Q.** With `O=C(O)CCCc1ccccc1` [PB, sodium phenylbutyrate] as the compound, how does the “median time to maximum plasma concentration (Cmax)” value read?
**A.** 1 h
